Assay in all cases: log2 fold change, soluble protein after heating vs DMSO (PISA); higher = thermal stabilisation; K562 lysate, 10 uM; active = over 0.2 and 3.5 SD of the protein, either way, in both replicates (recomputed)
Compound in assay [1]: CC1=C2C(=CC=C1)N=C(N(C2=O)C3=CC=CC=C3C)CN4C=NC5=C(N=CN=C54)N
In outline:
(§1)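 To prepare the extract, K562 pellets were dounce-homogenised in PBS pH 7.4 with 1 mM MgCl2, giving crude material at 1 mg/mL protein. This was treated with 10 μM compound for 30 min, then heated in aliquots for 3 min over 48°C-58°C before pooling and addition of NP-40 to 0.5% at 4°C. Centrifugation at 21,000xg for 90 min left soluble protein in the supernatant, which TMTpro 16plex LC-MS/MS quantified with equalised channel sums. Results are log-two fold changes in thermal stability compared with solvent controls, from duplicates.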

The chains behind the UniProt entries cited, without tags or fusion partners. Where a name states a change or a piece, a line headed by the entry shows the natural chain unless it says otherwise.
UniProt Q8N831: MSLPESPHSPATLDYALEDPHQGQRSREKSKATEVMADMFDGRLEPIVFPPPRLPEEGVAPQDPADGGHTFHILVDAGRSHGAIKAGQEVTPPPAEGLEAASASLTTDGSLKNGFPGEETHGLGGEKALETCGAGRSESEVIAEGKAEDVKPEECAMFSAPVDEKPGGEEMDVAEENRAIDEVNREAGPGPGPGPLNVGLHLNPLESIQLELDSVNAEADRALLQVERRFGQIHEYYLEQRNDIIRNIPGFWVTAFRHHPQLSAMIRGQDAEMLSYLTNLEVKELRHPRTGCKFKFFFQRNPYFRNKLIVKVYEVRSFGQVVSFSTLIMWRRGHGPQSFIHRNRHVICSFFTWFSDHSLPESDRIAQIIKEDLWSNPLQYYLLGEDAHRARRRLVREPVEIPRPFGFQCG
UniProt Q96RU7: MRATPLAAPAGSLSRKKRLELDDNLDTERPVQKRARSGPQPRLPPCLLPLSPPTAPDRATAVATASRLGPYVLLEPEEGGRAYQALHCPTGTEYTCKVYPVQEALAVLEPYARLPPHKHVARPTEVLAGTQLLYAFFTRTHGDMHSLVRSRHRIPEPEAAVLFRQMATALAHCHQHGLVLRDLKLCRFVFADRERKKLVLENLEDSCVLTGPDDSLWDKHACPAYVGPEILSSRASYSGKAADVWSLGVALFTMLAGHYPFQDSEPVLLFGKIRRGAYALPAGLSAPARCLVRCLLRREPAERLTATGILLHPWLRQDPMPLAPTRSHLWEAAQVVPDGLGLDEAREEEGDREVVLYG
UniProt O94972: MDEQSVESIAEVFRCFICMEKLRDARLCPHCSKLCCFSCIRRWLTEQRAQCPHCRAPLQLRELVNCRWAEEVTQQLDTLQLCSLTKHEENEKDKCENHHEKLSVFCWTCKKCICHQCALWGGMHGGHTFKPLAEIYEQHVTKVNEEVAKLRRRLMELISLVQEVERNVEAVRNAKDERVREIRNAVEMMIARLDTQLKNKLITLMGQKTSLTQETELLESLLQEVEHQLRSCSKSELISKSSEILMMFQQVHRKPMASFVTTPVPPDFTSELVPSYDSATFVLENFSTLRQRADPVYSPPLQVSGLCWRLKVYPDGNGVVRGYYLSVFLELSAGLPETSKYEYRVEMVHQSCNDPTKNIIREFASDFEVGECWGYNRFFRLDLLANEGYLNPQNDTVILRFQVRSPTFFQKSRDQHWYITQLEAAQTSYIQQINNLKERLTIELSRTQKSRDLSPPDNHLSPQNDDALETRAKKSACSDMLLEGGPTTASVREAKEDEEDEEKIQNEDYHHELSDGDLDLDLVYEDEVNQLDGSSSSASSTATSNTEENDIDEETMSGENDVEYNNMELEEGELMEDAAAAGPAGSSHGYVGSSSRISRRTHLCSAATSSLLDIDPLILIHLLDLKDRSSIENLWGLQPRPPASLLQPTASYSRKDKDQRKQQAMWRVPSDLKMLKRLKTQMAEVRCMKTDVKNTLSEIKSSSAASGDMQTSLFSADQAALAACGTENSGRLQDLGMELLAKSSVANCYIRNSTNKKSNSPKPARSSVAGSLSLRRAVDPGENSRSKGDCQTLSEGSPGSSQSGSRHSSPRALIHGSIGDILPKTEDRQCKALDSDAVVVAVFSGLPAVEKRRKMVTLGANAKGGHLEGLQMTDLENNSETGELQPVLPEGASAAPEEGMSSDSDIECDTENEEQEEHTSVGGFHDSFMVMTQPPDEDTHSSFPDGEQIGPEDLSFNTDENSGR
UniProt Q9H0U9: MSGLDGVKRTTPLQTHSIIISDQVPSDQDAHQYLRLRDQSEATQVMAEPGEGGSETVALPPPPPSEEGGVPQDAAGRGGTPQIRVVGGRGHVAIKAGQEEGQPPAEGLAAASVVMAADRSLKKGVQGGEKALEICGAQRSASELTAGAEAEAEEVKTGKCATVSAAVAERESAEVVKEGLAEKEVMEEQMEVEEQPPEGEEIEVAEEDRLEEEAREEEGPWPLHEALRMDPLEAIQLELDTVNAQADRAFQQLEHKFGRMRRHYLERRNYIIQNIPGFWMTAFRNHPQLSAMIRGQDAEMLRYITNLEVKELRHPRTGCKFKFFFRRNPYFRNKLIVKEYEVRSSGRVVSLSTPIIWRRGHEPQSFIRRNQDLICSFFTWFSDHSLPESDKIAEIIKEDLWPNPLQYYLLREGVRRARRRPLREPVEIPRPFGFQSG
UniProt O60637: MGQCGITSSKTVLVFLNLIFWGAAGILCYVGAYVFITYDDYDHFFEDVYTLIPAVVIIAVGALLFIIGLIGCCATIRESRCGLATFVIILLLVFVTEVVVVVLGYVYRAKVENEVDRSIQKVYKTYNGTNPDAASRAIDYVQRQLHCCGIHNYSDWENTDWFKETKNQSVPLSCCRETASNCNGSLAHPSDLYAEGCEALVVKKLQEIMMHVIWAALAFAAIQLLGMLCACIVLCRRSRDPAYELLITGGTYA
UniProt Q9Y4A5, whole entry, looked up: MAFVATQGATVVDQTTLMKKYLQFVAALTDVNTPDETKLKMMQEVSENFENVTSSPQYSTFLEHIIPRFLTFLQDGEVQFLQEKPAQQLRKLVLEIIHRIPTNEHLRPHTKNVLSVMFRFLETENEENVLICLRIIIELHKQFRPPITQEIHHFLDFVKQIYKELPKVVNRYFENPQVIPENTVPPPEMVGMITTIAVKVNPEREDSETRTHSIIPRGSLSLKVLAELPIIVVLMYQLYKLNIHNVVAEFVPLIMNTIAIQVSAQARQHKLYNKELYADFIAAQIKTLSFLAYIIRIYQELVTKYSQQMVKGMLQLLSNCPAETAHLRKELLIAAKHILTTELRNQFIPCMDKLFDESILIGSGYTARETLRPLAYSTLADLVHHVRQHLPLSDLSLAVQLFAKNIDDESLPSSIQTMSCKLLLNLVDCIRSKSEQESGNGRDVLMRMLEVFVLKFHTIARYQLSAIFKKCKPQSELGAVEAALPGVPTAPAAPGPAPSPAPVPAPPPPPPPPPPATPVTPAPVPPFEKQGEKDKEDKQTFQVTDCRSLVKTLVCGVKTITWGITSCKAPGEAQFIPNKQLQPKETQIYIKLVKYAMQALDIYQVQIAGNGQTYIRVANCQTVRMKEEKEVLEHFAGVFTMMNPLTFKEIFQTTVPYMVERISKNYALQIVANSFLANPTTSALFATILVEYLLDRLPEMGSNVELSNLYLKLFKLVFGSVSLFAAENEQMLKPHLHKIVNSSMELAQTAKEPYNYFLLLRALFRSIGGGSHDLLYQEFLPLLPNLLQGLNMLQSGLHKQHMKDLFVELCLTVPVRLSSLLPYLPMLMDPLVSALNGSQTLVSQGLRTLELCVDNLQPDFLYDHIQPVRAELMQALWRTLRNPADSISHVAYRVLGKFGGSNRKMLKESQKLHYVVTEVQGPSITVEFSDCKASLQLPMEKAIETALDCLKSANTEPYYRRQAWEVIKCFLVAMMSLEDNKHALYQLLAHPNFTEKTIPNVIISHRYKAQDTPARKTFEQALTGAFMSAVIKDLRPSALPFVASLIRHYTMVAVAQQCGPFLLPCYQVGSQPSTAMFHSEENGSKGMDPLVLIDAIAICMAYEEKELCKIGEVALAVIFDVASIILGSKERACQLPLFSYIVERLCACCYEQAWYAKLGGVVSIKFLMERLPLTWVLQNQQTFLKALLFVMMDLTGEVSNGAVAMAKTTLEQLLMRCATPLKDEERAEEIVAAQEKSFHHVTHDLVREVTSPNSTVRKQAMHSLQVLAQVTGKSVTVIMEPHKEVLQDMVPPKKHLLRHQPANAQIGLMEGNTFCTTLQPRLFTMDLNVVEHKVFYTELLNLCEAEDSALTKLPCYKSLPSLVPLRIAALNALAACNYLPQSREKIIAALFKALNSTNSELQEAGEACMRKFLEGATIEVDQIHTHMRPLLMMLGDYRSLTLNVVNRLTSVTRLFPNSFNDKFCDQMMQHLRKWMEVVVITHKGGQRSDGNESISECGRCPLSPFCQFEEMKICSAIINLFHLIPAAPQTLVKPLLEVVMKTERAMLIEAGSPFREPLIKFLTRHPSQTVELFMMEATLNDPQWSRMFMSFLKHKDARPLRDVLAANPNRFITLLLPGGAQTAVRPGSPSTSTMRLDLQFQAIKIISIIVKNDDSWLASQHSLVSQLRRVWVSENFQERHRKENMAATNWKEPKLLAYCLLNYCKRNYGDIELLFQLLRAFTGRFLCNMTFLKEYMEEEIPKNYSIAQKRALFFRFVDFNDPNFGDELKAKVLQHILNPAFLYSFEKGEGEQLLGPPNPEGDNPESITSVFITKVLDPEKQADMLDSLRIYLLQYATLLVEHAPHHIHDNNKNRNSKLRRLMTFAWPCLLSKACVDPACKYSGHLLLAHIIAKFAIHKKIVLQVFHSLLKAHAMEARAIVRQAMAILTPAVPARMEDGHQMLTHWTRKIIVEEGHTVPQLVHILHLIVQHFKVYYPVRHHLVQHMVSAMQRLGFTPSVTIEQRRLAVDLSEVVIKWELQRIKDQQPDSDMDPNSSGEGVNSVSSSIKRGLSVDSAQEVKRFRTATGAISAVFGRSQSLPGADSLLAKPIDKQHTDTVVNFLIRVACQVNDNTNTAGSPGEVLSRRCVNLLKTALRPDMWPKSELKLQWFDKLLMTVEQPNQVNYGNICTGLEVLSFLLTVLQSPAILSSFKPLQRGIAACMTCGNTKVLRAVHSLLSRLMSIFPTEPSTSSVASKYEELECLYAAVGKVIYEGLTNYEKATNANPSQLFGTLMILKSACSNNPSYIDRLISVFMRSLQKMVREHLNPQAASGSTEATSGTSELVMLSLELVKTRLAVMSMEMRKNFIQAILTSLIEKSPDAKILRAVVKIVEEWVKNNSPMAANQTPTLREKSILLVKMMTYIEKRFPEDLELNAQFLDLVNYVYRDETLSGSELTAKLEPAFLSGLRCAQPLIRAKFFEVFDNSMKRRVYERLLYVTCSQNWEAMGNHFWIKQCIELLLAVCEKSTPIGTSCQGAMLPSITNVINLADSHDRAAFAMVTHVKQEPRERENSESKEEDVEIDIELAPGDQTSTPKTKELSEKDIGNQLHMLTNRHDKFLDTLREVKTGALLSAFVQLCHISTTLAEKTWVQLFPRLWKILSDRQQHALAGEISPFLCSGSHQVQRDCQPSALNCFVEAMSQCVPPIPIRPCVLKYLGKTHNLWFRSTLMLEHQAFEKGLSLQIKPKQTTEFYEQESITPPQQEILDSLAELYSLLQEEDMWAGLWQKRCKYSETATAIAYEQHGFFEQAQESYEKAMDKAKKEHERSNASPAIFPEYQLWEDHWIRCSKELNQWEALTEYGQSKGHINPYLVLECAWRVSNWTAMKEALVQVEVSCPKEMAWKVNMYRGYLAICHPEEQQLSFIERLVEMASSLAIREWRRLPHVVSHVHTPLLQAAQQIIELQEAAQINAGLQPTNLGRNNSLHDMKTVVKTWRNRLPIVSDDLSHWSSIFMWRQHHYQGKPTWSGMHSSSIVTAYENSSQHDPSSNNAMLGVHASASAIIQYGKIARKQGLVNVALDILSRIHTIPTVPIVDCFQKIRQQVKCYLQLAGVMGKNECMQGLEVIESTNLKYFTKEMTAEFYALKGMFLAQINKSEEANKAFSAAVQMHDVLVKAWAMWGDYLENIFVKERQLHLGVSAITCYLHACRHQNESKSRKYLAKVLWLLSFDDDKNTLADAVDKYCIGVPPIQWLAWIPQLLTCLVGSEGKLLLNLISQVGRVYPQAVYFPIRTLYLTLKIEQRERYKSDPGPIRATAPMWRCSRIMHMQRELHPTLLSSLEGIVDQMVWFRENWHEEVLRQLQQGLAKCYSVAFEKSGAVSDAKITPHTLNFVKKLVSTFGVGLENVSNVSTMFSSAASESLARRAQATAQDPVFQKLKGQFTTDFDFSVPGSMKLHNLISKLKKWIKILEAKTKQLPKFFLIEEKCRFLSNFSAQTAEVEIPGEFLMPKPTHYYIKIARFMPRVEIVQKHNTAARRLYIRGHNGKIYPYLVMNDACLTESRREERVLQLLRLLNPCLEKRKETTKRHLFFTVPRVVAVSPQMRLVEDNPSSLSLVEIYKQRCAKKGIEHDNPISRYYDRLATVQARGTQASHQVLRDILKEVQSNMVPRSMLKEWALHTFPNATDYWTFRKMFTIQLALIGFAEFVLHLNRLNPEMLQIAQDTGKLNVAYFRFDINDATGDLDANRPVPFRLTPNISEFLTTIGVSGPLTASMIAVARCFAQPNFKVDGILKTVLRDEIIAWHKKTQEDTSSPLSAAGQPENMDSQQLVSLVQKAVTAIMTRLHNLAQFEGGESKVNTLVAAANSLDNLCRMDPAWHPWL
UniProt O14817: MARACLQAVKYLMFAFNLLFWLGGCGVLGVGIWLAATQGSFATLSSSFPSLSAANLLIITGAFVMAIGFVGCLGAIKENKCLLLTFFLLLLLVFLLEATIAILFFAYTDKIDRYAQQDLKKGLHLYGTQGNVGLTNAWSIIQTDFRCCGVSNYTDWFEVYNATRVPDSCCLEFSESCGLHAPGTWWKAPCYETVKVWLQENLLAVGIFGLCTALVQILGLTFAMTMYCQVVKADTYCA
UniProt O43715: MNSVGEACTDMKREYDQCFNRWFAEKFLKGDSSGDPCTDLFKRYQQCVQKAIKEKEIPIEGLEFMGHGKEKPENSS

Compound in assay [2]: Cc1sc2c(c1C)C(c1ccc(Cl)cc1)=N[C@@H](CC(=O)OC(C)(C)C)c1nnc(C)n1-2
In outline:
as §1

Compound in assay [3]: C1=CC=C(C=C1)[C@H](COC2=CC3=C(C=C2)NC(=O)N3)NC(=O)C4=CC=CN(C4=O)CC5=CC(=C(C=C5)F)F
In outline: as §1

Compound in assay [4]: CC1=C(SC2=C1C(=N[C@H](C3=NN=C(N32)C)CC(=O)N)C4=CC=C(C=C4)Cl)C
In a few lines: as §1

Compound in assay [5]: c1ccc([C@@H]2C[C@H]2NC2CCNCC2)cc1
In outline:
as §1

The list shows a part of the results.

Regarding TSPAN31 (UniProt Q12999), the log2 fold change in assay [1] is inactive: 0.034; in assay [2], inactive: 0.094.
With TSPYL6 (UniProt Q8N831), in assay [2], the log2 fold change was inactive: 0.032.
Regarding TRAPPC2L (UniProt Q9UL33), the log2 fold change is inactive: -0.017 in assay [3]; inactive: 0.066 in assay [4]; inactive: 0.071 in assay [1]; inactive: 0.006 in assay [2]; inactive: -0.041 in assay [5].
Turning to TRPM7 (UniProt Q96QT4), the log2 fold change in assay [1] was inactive: 0.185; in assay [2], inactive: -0.11; in assay [5], inactive: 0.176.
For the target TRIM3 (UniProt O75382), the log2 fold change in assay [1] is inactive: 0.197.
On to TRIM41 (UniProt Q8WV44), for which the log2 fold change in assay [1] was inactive: -0.089; in assay [2] it was inactive: 0.177; in assay [5] it was inactive: 0.055.
In the case of TRIB3 (UniProt Q96RU7), in assay [2], the log2 fold change was inactive: 0.186.
Consider TRUB2 (UniProt O95900), for which the log2 fold change in assay [1] is inactive: -0.009; in assay [2], inactive: -0.113; in assay [5] it was inactive: 0.099.
Regarding TRIM37 (UniProt O94972), in assay [2], the log2 fold change was inactive: 0.
Take TSEN15, A0A2U3TZM3: the log2 fold change was inactive: 0.122 in assay [1], inactive: -0.411 in assay [2] and inactive: 0.067 in assay [5].
With TSSC4 (UniProt Q9Y5U2), the log2 fold change in assay [3] was inactive: 0.055; in assay [4] it was inactive: 0.07; in assay [1], inactive: 0.05; in assay [2], inactive: -0.022; in assay [5], inactive: -0.068.
Consider TRAF7 (UniProt Q6Q0C0), for which the log2 fold change in assay [1] was inactive: 0.007; in assay [2], inactive: -0.005; in assay [5] it was inactive: 0.238.
As for TRMT2B (UniProt Q96GJ1), the log2 fold change in assay [3] was inactive: -0.126; in assay [4], inactive: 0.218; in assay [2], inactive: -0.021; in assay [5] it was inactive: 0.096.
TSPYL1 (UniProt Q9H0U9): the log2 fold change in assay [3] is inactive: -0.014; in assay [4], inactive: -0.08; in assay [2] it was inactive: -0.072; in assay [5] it was inactive: -0.034.
With TSPAN3 (UniProt O60637), the results for the log2 fold change in assay [1], in assay [2] and in assay [5] were inactive: 0.174, inactive: 0.006 and inactive: 0.16, respectively.
Regarding TRRAP (UniProt Q9Y4A5), the log2 fold change in assay [3] is inactive: -0.022; in assay [4] it was inactive: -0.021; in assay [1], inactive: 0.004; in assay [2], inactive: 0.015; in assay [5], inactive: 0.018.
As to TSPAN4 (UniProt O14817), in assay [1], the log2 fold change is inactive: 0.042.
On to TRIAP1 (UniProt O43715), for which the log2 fold change in assay [1] was inactive: -0.06; in assay [2], inactive: -0.029; in assay [5], inactive: 0.202.

Source of the values: the supplement of paper PMC10849652.
